Reference: the supplement of paper PMC12259267, “Disruption of the KLHL37–N-Myc complex restores N-Myc degradation and arrests neuroblastoma growth in mouse models” (The Journal of Clinical Investigation, 2025)
Where a name gives a salt, the structure may show the parent alone. The list shows a part of the results. Single values are uncertain, as repeats are few or missing. Square brackets hold non-standard residues; d marks the D form. Peptide text beside a SMILES is read from it. * marks the point of attachment. Sta = CC(C)C[C@H](N)[C@@H](O)CC(=O)O; Isovaleryl = CC(C)CC(=O)*

Each compound was assayed on SK-N-BE(2) (assay: inhibition of N-Myc immunofluorescence signal per cell relative to control (fraction); higher = stronger N-Myc protein reduction). Settings: 1 µM; 9 h.

Row | Structure (SMILES) | inhibition of N-Myc immunofluorescence signal per cell
1 | N#Cc1ccc(-c2csc(NN=C3CCCC3)n2)cc1 [Remodelin (hydrobromide)] | 0.0298
2 | COc1cc2c(cc1OC(C)C)[C@H](c1ccc(Cl)cc1)N(c1ccc(N(C)C[C@H]3CC[C@H](N4CCN(C)C(=O)C4)CC3)cc1)C(=O)C2 [NVP-CGM097 (sulfate)] | 0.00951
3 | Clc1ccc(NN=C(c2ccccc2)c2ccccn2)nc1 | 0.0567
4 | COC(=O)CNC(=O)C(=O)OC | -0.0134
5 | COc1ccc(C(NC(=O)c2cnc(-c3cccnn3)[nH]c2=O)c2ccc(OC)cc2)cc1 | 0.0467
6 | O=C1/C(=C/c2ccc(Cl)c(Cl)c2)CNC/C1=C\c1ccc(Cl)c(Cl)c1 | 0.241
7 | Cc1cc(C)c(CNC(=O)c2cc(-c3ccc(N4CCN(C)CC4)nc3)cc3c2c(C)cn3C(C)C)c(=O)[nH]1 | 0.0597
8 | CCc1c(-c2ccc3[nH]ncc3c2)cnc(N)c1-c1ccc(O)cc1 | 0.141
9 | O=C(Nc1cccc(Br)c1)c1cccc(S(=O)(=O)N2CCCCCC2)c1 | 0.161
10 | N#Cc1ccc(Cn2cncc2CN2CCN(c3cccc(Cl)c3)C(=O)C2)cc1 | 0.00496
11 | O=C1CCC(N2C(=O)c3ccccc3C2=O)C(=O)N1 (centres undefined) [Thalidomide] | 0.281
12 | COc1cc2ccc(=O)oc2cc1O[C@@H]1O[C@H](CO)[C@@H](O)[C@H](O)[C@H]1O [Scopolin] | 0.138
13 | Cc1ncsc1-c1ccc(CNC(=O)[C@@H]2C[C@@H](O)CN2C(=O)[C@H](C(C)C)N2Cc3ccccc3C2=O)cc1 | 0.137
14 | CC(C)CC(=O)N[C@H](C(=O)N[C@H](C(=O)N[C@@H](CC(C)C)[C@@H](O)CC(=O)N[C@@H](C)C(=O)N[C@@H](CC(C)C)[C@@H](O)CC(=O)O)C(C)C)C(C)C [Pepstatin (Trifluoroacetate)] (Isovaleryl-VV[Sta]A[Sta]-OH) | 0.168
